Measured values taken from patent US11447485B2, “Class of bifunctional compounds with quanternary ammonium salt structure” (Beijing Showby Pharmaceutical Co., Ltd., priority 2016, dated 2022).
Some of these results come from one statement about several compounds together.

Tested on: bronchoconstriction response in the trachea of guinea pig induced by Mch
Assay: Bronchoconstriction induced by methacholine (Mch) in anaesthetized guinea pigs, airway dripping (Raw, Cdyn)
Conditions: for inhibitory rate on the airway resistance: 0.5 μg/kg airway dripping; for inhibitory rate on the airway resistance increase / maximum inhibitory rate (airway resistance increase) / inhibitory rate of airway resistance increase: 1 μg/kg airway dripping; for maximum inhibitory rate (airway resistance increase): after 1 hour; for inhibitory rate of airway resistance increase: after 24 hours; for acting time after administration of dripping by airway: 1 μg/kg and 0.5 μg/kg

Row | Compound | inhibitory rate on the airway resistance (12 h) [%] | inhibitory rate on the airway resistance (24 h) [%] | inhibitory rate on the airway resistance increase [%] | maximum inhibitory rate (airway resistance increase) [%] | inhibitory rate of airway resistance increase [%] | acting time after administration of dripping by airway
1 | OCc1cc([C@@H](O)CNCCOCCCOCC[N+]23CCC(CC2)[C@@H](OC[C@@](O)(c2ccccc2)C2CCCC2)C3)ccc1O.[Br-] [Compound 48] | ≥ 85 | ≥ 75 | ≥ 80 | ≥ 90 | ≥ 85 | more than 24 hours
2 | COc1cc(C(C)NC[C@H](O)c2ccc(O)c(CO)c2)ccc1OCCC[N+]12CCC(CC1)[C@@H](OC[C@@](O)(c1ccccc1)C1CCCC1)C2.[Br-] (stereo partly drawn) [Compound 70] | ≥ 85 | ≥ 75 | ≥ 80 | ≥ 90 | ≥ 85 | more than 24 hours
3 | CC(C)(Cc1ccc(OCC[N+]23CCC(CC2)[C@@H](OC[C@@](O)(c2ccccc2)C2CCCCC2)C3)cc1)NC[C@H](O)c1ccc(O)c(NC=O)c1.[Br-] [Compound 99] | ≥ 85 | ≥ 75 | ≥ 80 | ≥ 90 | ≥ 85 | more than 24 hours
4 | COc1cc(NC(=O)CC[N+]23CCC(CC2)[C@@H](OC[C@@](O)(c2ccccc2)C2CCCC2)C3)c(Cl)cc1CNC[C@H](O)c1ccc(O)c(NC=O)c1.[Br-] [Compound 138] | ≥ 85 | ≥ 75 | ≥ 80 | ≥ 90 | ≥ 85 | more than 24 hours
